# Earlier results as cited in patent publication US12186290B2, “Methods for the treatment of glioblastoma multiforme” (priority 2017, dated 2025).
# Some of these results come from one statement about several compounds together. At least one structure is not confirmed: it was looked up by name or label, or the drawing left a doubt.
# Test system: GBM genome
# Details: GBM genome ~650 abnormal genes; cited from earlier work
compound,measurement,value
"O=C([O-])Cc1ccccc1.[Na+] [PN, phenylacetate]",number of abnormal genes affected in the GBM genome,over 100
